Measured values: the supplement of paper PMC10849652
This is one part of the list.

Amino acid sequences for entries named in this document (tags omitted). A change or cut given only in a name is not applied to a line headed by its entry.
UniProt Q9UL63, whole entry, looked up: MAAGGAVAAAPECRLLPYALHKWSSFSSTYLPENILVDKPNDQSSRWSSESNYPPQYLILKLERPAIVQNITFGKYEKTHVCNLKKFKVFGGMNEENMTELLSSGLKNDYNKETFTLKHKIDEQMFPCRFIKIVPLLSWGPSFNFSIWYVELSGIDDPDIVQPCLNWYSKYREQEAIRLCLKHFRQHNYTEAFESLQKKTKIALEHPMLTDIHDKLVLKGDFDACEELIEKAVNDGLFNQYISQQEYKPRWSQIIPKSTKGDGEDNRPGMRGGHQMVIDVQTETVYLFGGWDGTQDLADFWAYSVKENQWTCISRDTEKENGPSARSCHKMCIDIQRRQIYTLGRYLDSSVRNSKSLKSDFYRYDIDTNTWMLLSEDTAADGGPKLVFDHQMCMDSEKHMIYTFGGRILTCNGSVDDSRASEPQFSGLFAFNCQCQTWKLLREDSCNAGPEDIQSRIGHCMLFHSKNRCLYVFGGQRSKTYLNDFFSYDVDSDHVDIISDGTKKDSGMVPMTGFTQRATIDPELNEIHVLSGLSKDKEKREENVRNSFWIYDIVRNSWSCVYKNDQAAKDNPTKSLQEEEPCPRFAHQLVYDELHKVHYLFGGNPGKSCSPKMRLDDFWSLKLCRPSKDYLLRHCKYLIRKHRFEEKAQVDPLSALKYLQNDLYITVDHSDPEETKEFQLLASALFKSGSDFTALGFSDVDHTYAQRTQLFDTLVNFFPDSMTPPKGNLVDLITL
UniProt Q99549: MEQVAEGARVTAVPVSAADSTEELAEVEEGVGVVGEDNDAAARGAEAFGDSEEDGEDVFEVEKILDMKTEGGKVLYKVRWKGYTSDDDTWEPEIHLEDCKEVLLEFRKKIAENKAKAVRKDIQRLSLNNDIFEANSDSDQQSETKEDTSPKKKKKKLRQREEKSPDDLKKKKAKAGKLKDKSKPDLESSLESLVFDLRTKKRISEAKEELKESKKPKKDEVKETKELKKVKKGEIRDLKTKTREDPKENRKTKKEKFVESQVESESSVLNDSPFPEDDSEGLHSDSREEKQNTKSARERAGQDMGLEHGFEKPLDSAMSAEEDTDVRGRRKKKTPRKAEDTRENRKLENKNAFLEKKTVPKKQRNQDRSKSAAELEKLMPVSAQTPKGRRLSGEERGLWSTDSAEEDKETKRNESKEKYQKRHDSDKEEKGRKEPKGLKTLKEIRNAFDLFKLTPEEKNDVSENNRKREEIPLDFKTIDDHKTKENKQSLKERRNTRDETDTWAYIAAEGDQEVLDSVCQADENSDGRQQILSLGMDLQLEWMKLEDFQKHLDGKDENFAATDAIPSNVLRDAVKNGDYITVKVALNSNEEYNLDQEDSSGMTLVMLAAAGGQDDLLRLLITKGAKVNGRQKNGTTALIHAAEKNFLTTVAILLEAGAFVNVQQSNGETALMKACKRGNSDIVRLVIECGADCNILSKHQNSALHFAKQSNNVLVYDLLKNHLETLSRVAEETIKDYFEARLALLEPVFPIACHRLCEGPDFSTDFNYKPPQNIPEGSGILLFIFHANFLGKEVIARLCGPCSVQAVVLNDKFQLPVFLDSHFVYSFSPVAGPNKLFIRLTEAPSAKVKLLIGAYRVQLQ
UniProt P51948: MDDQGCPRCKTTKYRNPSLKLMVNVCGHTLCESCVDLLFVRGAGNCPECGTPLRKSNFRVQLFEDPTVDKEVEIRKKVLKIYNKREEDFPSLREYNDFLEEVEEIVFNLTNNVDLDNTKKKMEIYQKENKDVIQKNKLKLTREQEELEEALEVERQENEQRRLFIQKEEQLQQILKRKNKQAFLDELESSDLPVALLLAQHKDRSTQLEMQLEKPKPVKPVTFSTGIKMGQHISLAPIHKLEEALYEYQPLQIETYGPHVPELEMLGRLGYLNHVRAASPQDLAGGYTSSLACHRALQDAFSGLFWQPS
UniProt Q13015: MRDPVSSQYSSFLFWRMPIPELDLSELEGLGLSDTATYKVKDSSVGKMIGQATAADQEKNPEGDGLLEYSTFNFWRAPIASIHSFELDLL
UniProt Q8IYU8: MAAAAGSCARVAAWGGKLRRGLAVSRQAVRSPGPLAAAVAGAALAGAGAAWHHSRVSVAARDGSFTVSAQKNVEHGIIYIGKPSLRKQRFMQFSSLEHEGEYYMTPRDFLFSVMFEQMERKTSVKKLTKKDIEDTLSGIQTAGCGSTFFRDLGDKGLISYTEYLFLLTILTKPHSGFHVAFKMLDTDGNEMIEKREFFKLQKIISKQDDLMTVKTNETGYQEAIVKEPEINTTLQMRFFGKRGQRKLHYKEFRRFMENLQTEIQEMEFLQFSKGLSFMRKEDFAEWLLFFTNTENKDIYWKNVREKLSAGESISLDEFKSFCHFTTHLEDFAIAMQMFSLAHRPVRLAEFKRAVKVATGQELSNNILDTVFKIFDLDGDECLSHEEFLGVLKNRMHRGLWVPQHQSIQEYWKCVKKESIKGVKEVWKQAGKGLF
UniProt Q15773: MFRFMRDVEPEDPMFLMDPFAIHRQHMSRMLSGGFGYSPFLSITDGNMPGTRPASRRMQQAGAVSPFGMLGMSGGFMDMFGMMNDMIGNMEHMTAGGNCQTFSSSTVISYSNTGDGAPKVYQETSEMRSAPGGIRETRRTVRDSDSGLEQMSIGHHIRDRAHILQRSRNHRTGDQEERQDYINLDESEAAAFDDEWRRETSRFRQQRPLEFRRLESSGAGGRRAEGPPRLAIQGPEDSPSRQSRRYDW
UniProt Q9Y4U1: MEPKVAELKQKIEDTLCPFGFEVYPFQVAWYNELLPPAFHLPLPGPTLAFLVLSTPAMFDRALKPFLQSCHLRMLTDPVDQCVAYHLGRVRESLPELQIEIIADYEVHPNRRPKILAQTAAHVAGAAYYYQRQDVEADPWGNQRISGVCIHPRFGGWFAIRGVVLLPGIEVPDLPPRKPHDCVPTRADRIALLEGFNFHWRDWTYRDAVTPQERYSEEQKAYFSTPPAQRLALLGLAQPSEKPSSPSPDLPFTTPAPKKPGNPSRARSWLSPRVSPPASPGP
UniProt Q09328: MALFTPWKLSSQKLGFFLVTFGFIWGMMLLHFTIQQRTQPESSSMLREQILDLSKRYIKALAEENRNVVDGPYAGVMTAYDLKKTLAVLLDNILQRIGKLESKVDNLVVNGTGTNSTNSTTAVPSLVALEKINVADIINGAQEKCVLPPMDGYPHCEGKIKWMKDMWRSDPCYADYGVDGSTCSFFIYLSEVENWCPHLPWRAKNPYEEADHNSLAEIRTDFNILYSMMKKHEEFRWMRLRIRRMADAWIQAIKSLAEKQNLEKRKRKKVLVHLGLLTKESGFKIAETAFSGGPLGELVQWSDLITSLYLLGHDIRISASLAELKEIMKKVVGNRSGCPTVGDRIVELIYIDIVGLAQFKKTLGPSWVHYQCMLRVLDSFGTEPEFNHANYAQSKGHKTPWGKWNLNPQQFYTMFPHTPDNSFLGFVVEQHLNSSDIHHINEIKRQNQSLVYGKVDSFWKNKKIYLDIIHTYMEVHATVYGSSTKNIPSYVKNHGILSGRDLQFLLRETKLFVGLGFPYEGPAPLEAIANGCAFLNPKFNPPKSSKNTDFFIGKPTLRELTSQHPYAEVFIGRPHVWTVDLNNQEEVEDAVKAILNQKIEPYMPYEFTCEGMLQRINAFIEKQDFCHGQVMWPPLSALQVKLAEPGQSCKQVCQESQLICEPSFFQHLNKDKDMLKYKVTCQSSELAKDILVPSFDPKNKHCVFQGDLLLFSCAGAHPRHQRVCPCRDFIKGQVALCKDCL
UniProt Q9HBH9: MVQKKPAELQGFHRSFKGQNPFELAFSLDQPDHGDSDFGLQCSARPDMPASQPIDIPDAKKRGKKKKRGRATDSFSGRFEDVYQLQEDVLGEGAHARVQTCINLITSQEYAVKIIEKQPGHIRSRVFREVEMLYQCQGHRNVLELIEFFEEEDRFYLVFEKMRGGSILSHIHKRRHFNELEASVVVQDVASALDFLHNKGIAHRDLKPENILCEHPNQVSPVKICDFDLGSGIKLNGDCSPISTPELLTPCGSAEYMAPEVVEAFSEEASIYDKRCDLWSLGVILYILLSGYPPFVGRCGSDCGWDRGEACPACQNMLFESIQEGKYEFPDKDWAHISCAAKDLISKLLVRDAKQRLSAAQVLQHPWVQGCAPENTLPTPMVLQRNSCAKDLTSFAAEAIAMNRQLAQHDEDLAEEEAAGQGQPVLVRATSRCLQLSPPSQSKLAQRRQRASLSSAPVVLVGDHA
UniProt P16455, whole entry, looked up: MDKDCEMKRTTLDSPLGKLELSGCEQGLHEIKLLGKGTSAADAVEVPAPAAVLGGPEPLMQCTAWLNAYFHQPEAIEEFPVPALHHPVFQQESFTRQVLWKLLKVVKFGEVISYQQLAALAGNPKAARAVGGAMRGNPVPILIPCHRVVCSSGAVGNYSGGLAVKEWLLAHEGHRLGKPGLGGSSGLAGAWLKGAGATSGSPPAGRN
UniProt Q7Z6M3: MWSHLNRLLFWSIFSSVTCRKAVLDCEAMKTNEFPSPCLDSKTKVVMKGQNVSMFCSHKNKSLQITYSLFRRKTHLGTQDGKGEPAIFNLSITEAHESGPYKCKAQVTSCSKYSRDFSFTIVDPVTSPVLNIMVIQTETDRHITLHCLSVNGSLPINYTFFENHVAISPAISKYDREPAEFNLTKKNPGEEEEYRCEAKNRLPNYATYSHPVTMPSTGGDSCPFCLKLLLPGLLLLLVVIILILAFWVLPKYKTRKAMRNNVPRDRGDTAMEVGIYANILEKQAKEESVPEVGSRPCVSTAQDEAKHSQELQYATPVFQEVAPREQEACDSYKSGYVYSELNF
UniProt P26572: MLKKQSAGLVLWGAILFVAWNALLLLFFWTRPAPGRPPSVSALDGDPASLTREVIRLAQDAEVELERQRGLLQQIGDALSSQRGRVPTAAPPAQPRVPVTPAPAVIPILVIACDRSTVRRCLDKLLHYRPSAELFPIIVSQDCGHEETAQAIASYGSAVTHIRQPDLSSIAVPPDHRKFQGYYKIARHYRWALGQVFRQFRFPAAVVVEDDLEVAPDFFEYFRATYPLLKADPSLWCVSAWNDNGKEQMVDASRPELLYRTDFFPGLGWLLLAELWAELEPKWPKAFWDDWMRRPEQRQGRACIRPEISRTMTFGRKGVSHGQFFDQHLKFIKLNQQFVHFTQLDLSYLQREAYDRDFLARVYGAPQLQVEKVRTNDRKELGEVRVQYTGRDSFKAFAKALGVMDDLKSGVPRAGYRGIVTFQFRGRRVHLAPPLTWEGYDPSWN
UniProt O95396: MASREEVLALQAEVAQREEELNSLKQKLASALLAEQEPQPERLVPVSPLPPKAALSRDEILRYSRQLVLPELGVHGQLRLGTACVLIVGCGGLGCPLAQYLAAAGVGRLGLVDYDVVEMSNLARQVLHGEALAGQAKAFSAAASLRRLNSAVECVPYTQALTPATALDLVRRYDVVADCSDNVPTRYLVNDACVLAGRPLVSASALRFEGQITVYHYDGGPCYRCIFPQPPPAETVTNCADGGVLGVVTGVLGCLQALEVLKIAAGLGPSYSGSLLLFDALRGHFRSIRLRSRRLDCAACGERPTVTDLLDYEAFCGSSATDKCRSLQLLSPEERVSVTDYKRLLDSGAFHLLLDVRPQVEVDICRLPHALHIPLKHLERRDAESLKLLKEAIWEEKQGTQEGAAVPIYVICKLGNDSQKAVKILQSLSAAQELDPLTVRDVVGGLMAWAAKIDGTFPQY
UniProt Q8WV92, whole entry, looked up: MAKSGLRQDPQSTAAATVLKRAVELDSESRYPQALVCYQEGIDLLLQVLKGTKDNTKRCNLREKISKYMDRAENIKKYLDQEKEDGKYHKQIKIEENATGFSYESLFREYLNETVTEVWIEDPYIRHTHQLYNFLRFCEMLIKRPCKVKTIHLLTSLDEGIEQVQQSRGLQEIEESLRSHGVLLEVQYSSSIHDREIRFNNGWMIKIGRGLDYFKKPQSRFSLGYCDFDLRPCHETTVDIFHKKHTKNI
UniProt Q10469: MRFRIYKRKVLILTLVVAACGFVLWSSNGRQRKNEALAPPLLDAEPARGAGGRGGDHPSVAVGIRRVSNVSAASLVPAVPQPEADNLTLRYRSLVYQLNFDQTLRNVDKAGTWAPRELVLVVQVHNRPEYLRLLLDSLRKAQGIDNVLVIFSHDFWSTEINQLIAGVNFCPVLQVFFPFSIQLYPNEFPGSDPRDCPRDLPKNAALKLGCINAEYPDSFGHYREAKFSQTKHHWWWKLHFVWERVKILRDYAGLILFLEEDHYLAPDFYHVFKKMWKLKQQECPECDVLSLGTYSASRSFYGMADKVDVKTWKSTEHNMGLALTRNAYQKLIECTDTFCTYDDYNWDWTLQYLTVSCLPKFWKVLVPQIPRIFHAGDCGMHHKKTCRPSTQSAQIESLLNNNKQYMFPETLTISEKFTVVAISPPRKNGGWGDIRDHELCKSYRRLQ
UniProt Q9H8S9: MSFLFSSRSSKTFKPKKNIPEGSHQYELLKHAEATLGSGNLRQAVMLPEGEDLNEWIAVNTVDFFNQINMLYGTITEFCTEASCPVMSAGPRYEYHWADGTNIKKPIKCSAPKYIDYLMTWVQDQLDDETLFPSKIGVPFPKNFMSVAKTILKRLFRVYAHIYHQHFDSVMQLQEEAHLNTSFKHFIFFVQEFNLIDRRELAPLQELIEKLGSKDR

Tests used:
Test in all cases: log2 fold change, soluble protein after heating vs DMSO (PISA); higher = thermal stabilisation; K562 lysate, 10 uM; active = over 0.2 and 3.5 SD of the protein, either way, in both replicates (recomputed)
[1] = compound: C1=CC=C(C=C1)[C@H](COC2=CC3=C(C=C2)NC(=O)N3)NC(=O)C4=CC=CN(C4=O)CC5=CC(=C(C=C5)F)F
Outline: (§1)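 Soluble protein was defined as the supernatant remaining after 21,000xg for 90 min, following pooling of heated aliquots and adjustment to 0.5% NP-40 at 4°C. Before that, crude K562 extract at 1 mg/mL protein in PBS pH 7.4 with 1 mM MgCl2 was treated with 10 μM compound for 30 min and heated for 3 min across 48°C-58°C. Quantification used TMTpro 16plex LC-MS/MS with channel sums equalised, and values are log-two fold changes in thermal stability relative to solvent controls from duplicates.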

[2] = compound: CC1=C(SC2=C1C(=N[C@H](C3=NN=C(N32)C)CC(=O)N)C4=CC=C(C=C4)Cl)C
Outline: as §1

[3] = compound: CC1=C2C(=CC=C1)N=C(N(C2=O)C3=CC=CC=C3C)CN4C=NC5=C(N=CN=C54)N
Outline: as §1

[4] = compound: Cc1sc2c(c1C)C(c1ccc(Cl)cc1)=N[C@@H](CC(=O)OC(C)(C)C)c1nnc(C)n1-2
Outline: as §1

[5] = compound: c1ccc([C@@H]2C[C@H]2NC2CCNCC2)cc1
Outline: as §1

Measured: log2 fold change

MKLN1 (UniProt Q9UL63)
inactive: [1] 0.011 | [2] 0.039 | [3] 0.005 | [4] 0.031 | [5] -0.04

MICALL1 (UniProt Q8N3F8)
inactive: [1] 0.031 | [2] 0.023 | [3] 0.049 | [4] -0.046 | [5] 0.018

MON2 isoform 5 (UniProt Q7Z3U7)
inactive: [1] -0.014 | [2] 0.006 | [3] 0.005 | [4] 0.009 | [5] -0.013

MMAB (UniProt Q96EY8)
inactive: [1] 0.009 | [2] 0.031 | [3] -0.026 | [4] -0.023 | [5] -0.03

MPHOSPH8 (UniProt Q99549)
inactive: [1] 0.218 | [2] -0.134 | [3] -0.02 | [4] -0.011 | [5] -0.099

MICB, A0A140T979
inactive: [1] 0.028 | [2] -0.012 | [3] -0.003 | [4] 0.026 | [5] 0.019

MINDY3 (UniProt Q9H8M7)
inactive: [1] 0.01 | [2] 0.004 | [3] 0.029 | [4] 0.072 | [5] 0.026

MNAT1 (UniProt P51948)
inactive: [1] 0.077 | [2] -0.007 | [3] 0.017 | [4] -0.053 | [5] -0.063

MLLT11 (UniProt Q13015)
inactive: [1] 0.007 | [2] -0.048 | [3] 0.109 | [4] -0.037 | [5] 0.003

MICU2 (UniProt Q8IYU8)
inactive: [1] -0.132 | [2] -0.069 | [3] 0.049 | [4] -0.072 | [5] -0.002

MLH1 (UniProt P40692)
inactive: [1] -0.038 | [2] -0.006 | [3] 0.006 | [4] -0.012 | [5] 0.019

MLF2 (UniProt Q15773)
inactive: [1] 0.031 | [2] 0.076 | [3] 0.015 | [4] 0.059 | [5] -0.013

MPC1 (UniProt Q9Y5U8)
inactive: [1] -0.17 | [2] 0.148 | [3] -0.077 | [4] -0.087 | [5] 0.114

MRPL20 (UniProt Q9BYC9)
inactive: [1] -0.008 | [2] -0.004 | [3] 0.059 | [4] 0.026 | [5] 0.078

MLXIP (UniProt Q9HAP2)
inactive: [1] -0.063 | [2] 0.005 | [3] 0.018 | [4] 0.031 | [5] -0.025

MOV10 (UniProt Q9HCE1)
inactive: [1] 0.028 | [2] 0.01 | [3] 0.021 | [4] 0.029 | [5] 0.02

MRPL2 (UniProt Q5T653)
inactive: [1] 0.052 | [2] 0.025 | [3] -0.171 | [4] -0.069 | [5] -0.037

MOCS1 isoform 8 (UniProt Q9NZB8)
inactive: [1] -0.061 | [2] -0.044 | [3] 0.058 | [4] -0.017 | [5] 0.067

MMACHC (UniProt Q9Y4U1)
inactive: [1] 0.082 | [2] -0.221 | [3] -0.011 | [4] 0.073 | [5] 0.131

MORF4L2 (UniProt Q15014)
inactive: [1] 0.044 | [2] 0.01 | [3] 0.015 | [4] -0.024 | [5] -0.021

MGAT5 (UniProt Q09328)
inactive: [1] 0.088 | [2] -0.027 | [3] -0.171 | [4] 0.017 | [5] 0.083

MRPL11 (UniProt Q9Y3B7)
inactive: [1] -0.072 | [2] 0.036 | [3] -0.003 | [4] 0.017 | [5] 0.011

MIF (UniProt P14174)
inactive: [1] 0.046 | [2] 0.022 | [3] -0.043 | [4] -0.013 | [5] -0.09

MME (UniProt P08473)
inactive: [1] -0.152 | [2] 0.041 | [4] 0.232 | [5] -0.001

MNT (UniProt Q99583)
inactive: [3] 0.006 | [4] 0.134 | [5] -0.145

MISP3 (UniProt Q96FF7)
inactive: [4] -0.281

MPHOSPH10 (UniProt O00566)
inactive: [1] 0.036 | [2] 0.001 | [3] -0.019 | [4] 0.029 | [5] 0.04

MKNK2 (UniProt Q9HBH9)
inactive: [3] -0.035 | [4] 0.06

Retrieved one by one from above (2):
MPC1 (UniProt Q9Y5U8)
inactive: [1] -0.17 | [2] 0.148 | [3] -0.077 | [4] -0.087 | [5] 0.114

MNT (UniProt Q99583)
inactive: [3] 0.006 | [4] 0.134 | [5] -0.145

The list continues:

MICA (UniProt Q29983)
inactive: [1] -0.012 | [2] 0.053 | [5] -0.08

MGMT (UniProt P16455)
inactive: [4] 0.159

MILR1 (UniProt Q7Z6M3)
inactive: [3] -0.09

MINDY4 (UniProt Q4G0A6)
inactive: [1] 0.14 | [2] -0.078 | [4] 0.01 | [5] -0.048

MROH1 (UniProt Q8NDA8)
inactive: [1] -0.135 | [2] 0.08 | [4] 0.089 | [5] -0.084

MINDY2 (UniProt Q8NBR6)
inactive: [1] -0.129 | [2] 0.021 | [5] -0.022

MRM3 (UniProt Q9HC36)
inactive: [1] -0.037 | [2] 0.023 | [3] 0.054 | [4] 0.05 | [5] -0.161

MRNIP (UniProt Q6NTE8)
inactive: [1] -0.187 | [2] -0.176 | [4] 0 | [5] -0.047

MGAT1 (UniProt P26572)
inactive: [3] -0.175 | [4] 0.044 | [5] 0.025

MKKS (UniProt Q9HB66)
inactive: [3] 0.014

MLXIPL (UniProt Q9NP71)
inactive: [5] -0.051

MRC2 (UniProt Q9UBG0)
inactive: [4] 0.209 | [5] -0.084

MLKL (UniProt Q8NB16)
inactive: [1] 0.065 | [2] 0.097 | [5] -0.047

MMGT1 (UniProt Q8N4V1)
inactive: [1] 0.026 | [2] 0 | [4] -0.024 | [5] 0.003

MOCS3 (UniProt O95396)
inactive: [1] -0.056 | [2] -0.019 | [3] 0.278 | [4] 0.025 | [5] -0.176

MITD1 (UniProt Q8WV92)
inactive: [1] -0.036 | [2] -0.038 | [3] -0.015 | [4] -0.026 | [5] 0.117

MIB1 (UniProt Q86YT6)
inactive: [1] -0.007 | [2] -0.001 | [3] 0.082 | [4] -0.073 | [5] 0.05

MIGA2 (UniProt Q7L4E1)
inactive: [4] -0.062

MLYCD (UniProt O95822)
inactive: [1] 0.002 | [2] 0.047 | [4] -0.045 | [5] 0.004

MPDZ (UniProt O75970)
inactive: [3] -0.024 | [4] -0.159 | [5] -0.09

MPHOSPH9 (UniProt Q99550)
inactive: [1] -0.028 | [2] 0.06 | [3] 0.15 | [5] -0.066

MMS19 isoform 8 (UniProt Q96T76)
inactive: [1] -0.024 | [2] 0.001 | [3] 0.032 | [4] -0.005 | [5] 0.018

MIPOL1 (UniProt Q8TD10)
inactive: [1] -0.268 | [2] -0.156 | [4] -0.204 | [5] 0.067

19 consecutive entries out of the list so far, quoted:
MICA (UniProt Q29983)
inactive: [1] -0.012 | [2] 0.053 | [5] -0.08

MGMT (UniProt P16455)
inactive: [4] 0.159

MILR1 (UniProt Q7Z6M3)
inactive: [3] -0.09

MINDY4 (UniProt Q4G0A6)
inactive: [1] 0.14 | [2] -0.078 | [4] 0.01 | [5] -0.048

MROH1 (UniProt Q8NDA8)
inactive: [1] -0.135 | [2] 0.08 | [4] 0.089 | [5] -0.084

MINDY2 (UniProt Q8NBR6)
inactive: [1] -0.129 | [2] 0.021 | [5] -0.022

MRM3 (UniProt Q9HC36)
inactive: [1] -0.037 | [2] 0.023 | [3] 0.054 | [4] 0.05 | [5] -0.161

MRNIP (UniProt Q6NTE8)
inactive: [1] -0.187 | [2] -0.176 | [4] 0 | [5] -0.047

MGAT1 (UniProt P26572)
inactive: [3] -0.175 | [4] 0.044 | [5] 0.025

MKKS (UniProt Q9HB66)
inactive: [3] 0.014

MLXIPL (UniProt Q9NP71)
inactive: [5] -0.051

MRC2 (UniProt Q9UBG0)
inactive: [4] 0.209 | [5] -0.084

MLKL (UniProt Q8NB16)
inactive: [1] 0.065 | [2] 0.097 | [5] -0.047

MMGT1 (UniProt Q8N4V1)
inactive: [1] 0.026 | [2] 0 | [4] -0.024 | [5] 0.003

MOCS3 (UniProt O95396)
inactive: [1] -0.056 | [2] -0.019 | [3] 0.278 | [4] 0.025 | [5] -0.176

MITD1 (UniProt Q8WV92)
inactive: [1] -0.036 | [2] -0.038 | [3] -0.015 | [4] -0.026 | [5] 0.117

MIB1 (UniProt Q86YT6)
inactive: [1] -0.007 | [2] -0.001 | [3] 0.082 | [4] -0.073 | [5] 0.05

MIGA2 (UniProt Q7L4E1)
inactive: [4] -0.062

MLYCD (UniProt O95822)
inactive: [1] 0.002 | [2] 0.047 | [4] -0.045 | [5] 0.004

(further entries)

MGAT2 (UniProt Q10469)
inactive: [1] -0.056 | [2] -0.052 | [3] -0.035 | [4] 0.042 | [5] -0.007

MOB1A (UniProt Q9H8S9)
inactive: [3] -0.113

MRPL18 (UniProt Q9H0U6)
inactive: [3] 0.038 | [4] 0.001 | [5] -0.072

MIS18A (UniProt Q9NYP9)
inactive: [1] 0.021 | [2] -0.054 | [3] -0.017 | [4] 0.023 | [5] 0.047

MIDEAS, A0A1C7CYX1
inactive: [4] 0.038

MOB3B (UniProt Q86TA1)
inactive: [1] -0.061 | [2] 0.157 | [3] 0.187 | [4] 0.013 | [5] -0.014

MITF (UniProt O75030)
inactive: [3] 0.048 | [4] -0.043 | [5] 0.048

MRPL22 (UniProt Q9NWU5)
inactive: [5] 0.019

MLF1 isoform 3 (UniProt P58340)
inactive: [3] 0.01 | [5] 0.006

MOCS2 (UniProt O96033)
inactive: [4] -0.091
